# Test results from patent US20140031278A1, “Novel Glucagon Analogues” (NOVO NORDISK A/S, priority 2011, published 2014).
# The name of at least one read-out is uncertain. At least one compound was matched to its structure with a doubt left. *1 amine or outer side, *2 acyl side, *3 side chain or, on linkers, in order; H or OH if unused. Where a SMILES comes first, the peptide text is derived from it. Side-chain parts run from the residue outwards. [ ]: non-standard residue; d: D form. γGlu = O=C(O)[C@H](CCC(=O)[*:2])N[*:1]; Aib = CC(C)(N)C(=O)O
# Experiment: ThT fibrillation assay for physical stability (lag time, recovery)
# Type: physicochemical
# Conditions: peptide concentration in filtered supernatant after ThT assay as percentage of initial
# Excerpt: This has traditionally been measured by visual inspection of the sample. However, that kind of measurement is very subjective and depending on the observer. Therefore, the application of a small molecule indicator probe is much more advantageous. […] Enzymol.
# Here, F is the ThT fluorescence at the time t.
# The lag-time corresponds to the interval in which the critical mass of nucleus is built up and the apparent rate constant is the rate with which the fibril itself is formed.
# Samples were prepared freshly before each assay. […] The pH of the sample was adjusted to the desired value using appropriate amounts of concentrated NaOH and HCl.
# The plate was sealed with Scotch Pad (Qiagen).
# Each run was initiated by incubating the plate at the assay temperature for 10 min. The plate was measured every 20 minutes for a desired period of time. Between each measurement, the plate was shaken and heated as described.
# The supernatant was filtered through a 0.22 μm filter and an aliquot was transferred to a HPLC vial.
# The data set may be fitted to Eq. (1).
row,Structure (SMILES),ThT assay [Recovery]
1,"CC(=O)N[C@@H](CCC(=O)N[C@@H](CCC(=O)N[C@@H](CCC(=O)N[C@@H](CCC(=O)NCCCC[C@H](NC(=O)[C@@H](NC(=O)[C@H](Cc1ccccc1)NC(=O)[C@H](CCC(=O)O)NC(=O)[C@H](C)NC(=O)[C@H](C)NC(=O)[C@H](CCCNC(=N)N)NC(=O)[C@H](CCCNC(=N)N)NC(=O)[C@@H](NC(=O)[C@H](CC(=O)O)NC(=O)[C@H](CC(C)C)NC(=O)[C@H](Cc1ccc(O)cc1)NC(=O)[C@H](CCCCN)NC(=O)[C@H](CO)NC(=O)[C@H](Cc1ccc(O)cc1)NC(=O)[C@H](CC(=O)O)NC(=O)[C@H](CO)NC(=O)[C@@H](NC(=O)[C@H](Cc1ccccc1)NC(=O)[C@@H](NC(=O)CNC(=O)[C@H](Cc1c[nH]cn1)NC(=O)CNC(=O)[C@@H](N)Cc1c[nH]cn1)[C@@H](C)O)[C@@H](C)O)C(C)C)C(C)C)C(=O)N[C@@H](Cc1c[nH]c2ccccc12)C(=O)N[C@@H](CC(C)C)C(=O)N[C@@H](CC(C)C)C(=O)N[C@@H](CO)C(=O)N[C@H](C(=O)O)[C@@H](C)O)C(=O)O)C(=O)O)C(=O)O)C(=O)O [Example 46, N^ε24-[(4S)-4-[[(4S)-4-[[(4S)-4-[[(4S)-4-acetamido-4-carboxybutanoyl]amino]-4-carboxybutanoyl]amino]-4-carboxybutanoyl]amino]-4-carboxybutanoyl]-[Gly^2,His^3,Val^16,Ala^2°,Glu^21,Lys^24,Leu^27,Ser^28]-Glucagon] (H-HGHGTFTSDYSKYLDVRRAAEFVK([γGlu-γGlu-γGlu-γGlu-Ac])WLLST-OH)",100%
2,"CC(=O)N[C@@H](CCC(=O)N[C@@H](CCC(=O)N[C@@H](CCC(=O)N[C@@H](CCC(=O)NCCCC[C@H](NC(=O)[C@@H](NC(=O)[C@H](Cc1ccccc1)NC(=O)[C@H](CCC(=O)O)NC(=O)[C@H](C)NC(=O)[C@H](C)NC(=O)[C@H](CCCNC(=N)N)NC(=O)[C@H](CCCNC(=N)N)NC(=O)[C@@H](NC(=O)[C@H](CC(=O)O)NC(=O)[C@H](CC(C)C)NC(=O)[C@H](Cc1ccc(O)cc1)NC(=O)[C@H](CCCCN)NC(=O)[C@H](CO)NC(=O)[C@H](Cc1ccc(O)cc1)NC(=O)[C@H](CC(=O)O)NC(=O)[C@H](CO)NC(=O)[C@@H](NC(=O)[C@H](Cc1ccccc1)NC(=O)[C@@H](NC(=O)CNC(=O)[C@H](Cc1c[nH]cn1)NC(=O)C(C)(C)NC(=O)[C@@H](N)Cc1c[nH]cn1)[C@@H](C)O)[C@@H](C)O)C(C)C)C(C)C)C(=O)N[C@@H](Cc1c[nH]c2ccccc12)C(=O)N[C@@H](CC(C)C)C(=O)N[C@@H](CC(C)C)C(=O)N[C@@H](CO)C(=O)N[C@H](C(=O)O)[C@@H](C)O)C(=O)O)C(=O)O)C(=O)O)C(=O)O [Example 48, N^ε24-[(4S)-4-[[(4S)-4-[[(4S)-4-[[(4S)-4-acetamido-4-carboxybutanoyl]amino]-4-carboxybutanoyl]amino]-4-carboxybutanoyl]amino]-4-carboxybutanoyl]-[Aib^2,His^3,Val^16,Ala^20,Glu^21,Lys^24,Leu^27,Ser^28]-Glucagon] (H-H[Aib]HGTFTSDYSKYLDVRRAAEFVK([γGlu-γGlu-γGlu-γGlu-Ac])WLLST-OH)",100%
